Source: PubChem BioAssay AID1508600 (Functional Genomics Laboratory (NCATS/FGL), 2020)
Among all 53,000 sequences or so, about 3,700 (7%) were called active.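 How the source made its calls: active means gene knockdowns whose robust z-score for IL-1 alpha signal is at least 2 or at most -2, so actives lie on both sides; inactive means the rest.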 Some of the results follow.

Test: Components of the Cytosolic LPS Sensing Pathway: Gene Identification via Genome-wide siRNA Screen;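 further: robust z of the log signal after scaling to non-targeting control siRNA wells of the plate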
Settings: RAW264.7 macrophages, IL-1a HTRF, actives lie on both sides, screened at 100 nM (by protocol), cells primed 5 h with Pam3CSK4 first
Outline: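 IL-1a HTRF of supernatants after 24 hour LipidA transfection of Pam3CSK4-primed (5 hours) RAW264.7 cells, 48h post-siRNA transfection (100 nM). Scores: percent of plate negative-control median, then log-based robust z-score.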

Row | Sequence | z-score
1 | GGUUGUACUGAGUAGCUGGTT against Slc7a4 | inactive: 0.997
2 | CCCUGAUCCUAGUGGAAAUTT against Kng1 | inactive: 0.474
3 | GCAGUAGAGGAGCAAUAUUTT against Mxra7 | inactive: -1.44
4 | GCUUCAUGCACGGUUCUAUTT against Cib2 | inactive: 1.65
5 | GGACUGUUUCCUAUCCACUTT against Vmn2r1 | inactive: -1.06
6 | GGUUACCAUGAAGGCUGGATT against Bpifb6 | inactive: -0.988
7 | GGAGAGAAGAAAAAAAGAATT against Prrc2b | inactive: -1.65
8 | GCCUGACUUCAGACUAUUUTT against Stxbp5l | inactive: 1
9 | GCUGUGUCGUUCAAAAGAATT against Cd80 | inactive: -0.315
10 | GGAGAAAAGCUCUGUUCACTT against Olfr1195 | inactive: 0.906
11 | GGACAUUCAACCUGAAGUUTT against Hs6st3 | inactive: 0.472
12 | GGUCAAAAGACUGUACAUATT against Timm8a2 | active: 2.07
13 | GCUCUUGACACUAGAGAUUTT against Ap1s3 | inactive: 0.0373
14 | GGUUGUUAAGCUGAAGCAATT against Prkacb | inactive: -0.219
15 | GGCUAAUUCUGGCUUACGATT against Wfdc5 | inactive: 0.342
16 | ACAUACCAGUCUCUGUACCTT against Pigu | inactive: -1.56
17 | GGAAAAGGUGGCCUACACATT against Rhox11 | inactive: -1.7
18 | GGCAUAACAGAGAUGAUGATT against Ttc30a1 | inactive: -0.0751
19 | GGUUCUUGGAUAAAUCAAGTT against Mrpl40 | active: 2.41
20 | CCUAUCAUUGGACCUUAAATT against Dscaml1 | inactive: 0.428
21 | GGGAGUGCCCAUCAUUGUUTT against Rhod | inactive: -0.696
22 | GGAGAAAAACUUCUGGAACTT against Wdr41 | inactive: -0.522
23 | GGUUAGCAACAUUAAGAAGTT against Cops7b | inactive: -1.6

Pulled one by one from the entries so far, 2 records:
Row | Sequence | z-score
23 | GGUUAGCAACAUUAAGAAGTT against Cops7b | inactive: -1.6
11 | GGACAUUCAACCUGAAGUUTT against Hs6st3 | inactive: 0.472

Further entries:

Row | Sequence | z-score
24 | GGCGAAUGUGUGAAGAGGCTT against H2-Q5 | inactive: -1.97
25 | GGGUCAGAAUGUUACCAAATT against Cdc27 | inactive: 0.432
26 | GAUGGACAGGUUCAUGAUUTT against Rtl6 | inactive: -1.21
27 | GCGAAAGAAGGUGAUUAUGTT against Cyp26a1 | inactive: -0.487
28 | GCAUCUGUAAUGAACUGGUTT against Mrpl10 | inactive: 0.774
29 | GUUUGAAGGAUCGGAGAAGTT against Shf | inactive: -0.367
30 | GGUGGUGACCUUGGAUGUUTT against Gstp3 | inactive: -0.00982
31 | GGGCUGGCUACGAUAAGCUTT against Tes | inactive: 1.53
32 | GGGACAUGAGUAACUGAUGTT against Dhx8 | inactive: -0.908
33 | GGAGCUUGAAAUUGUCAUUTT against Magoh | active: -3.51
34 | GGAUCUCGAGCUGACAGAATT against Arhgap33os | inactive: 1.31
35 | GGACUCUUCUGAACUCUACTT against Ifna13 | inactive: 0.0465
36 | GGAGUCCAAAGAGAAGUUCTT against Hdgfl1 | inactive: 0.816
37 | GGUAGUGUGAAAAUCCUGGTT against Bst1 | inactive: -1.51
38 | CCACUCAUUGUUCAUGGAATT against Olfr1490 | inactive: 0.798
39 | GGACAUGUUCAACUCCUUCTT against Ppp4r1 | inactive: -0.311
40 | CCAAAACUUGGGCAUGUGCTT against Olfr94 | inactive: 0.0027
41 | GGGCUUUCACACAAUCCCUTT against Kcns1 | inactive: -0.362
42 | GGAGAGCCUGAGCAAGAAUTT against Tmem164 | inactive: -1.58
43 | GGCAUACCCACAACUGAUGTT against Aars2 | inactive: -1.21
44 | CGUGUAACACACGAUUAGATT against Myot | inactive: 0.587
45 | GGAGUGCAGUCACUAUUUGTT against Il2rg | inactive: -0.0154
46 | GGUUCACGUAUUAAAAACATT against Cryz | inactive: -0.118

Row | Sequence | z-score
47 | GGAUAGCAACAGAAAACGUTT against Lgi3 | inactive: 1.04
48 | GGAGUUUGGAAUAAAAAGGTT against Flt3 | inactive: -0.173
49 | GGCUGGAAUCGAUCAUUUCTT against 3830417A13Rik | inactive: 1.19
50 | GGCGGGUUUGCUGAAUAACTT against Lrrc26 | active: 2.43
51 | GGGUUCUCAAGAAUUAAAGTT against Fbn1 | inactive: -0.217
52 | GGCUAAUUGCUACGUUCCCTT against Fam210b | inactive: 1.24
53 | GGGCCUGAAGUAUGAAUGGTT against Lsm5 | inactive: -0.42
54 | GUGUUUCCUUGUUAAGAUUTT against Bloc1s4 | inactive: -0.841
55 | AUAUCAGACUGACAUAGCATT against Obox5 | active: 2.47
56 | GGUCCACACCAGACAUCAATT against Wfdc5 | inactive: 0.263
57 | GGAGCAACUGUUUUAAAAGTT against P3h2 | inactive: 1.34
58 | GCUCCUAACUUUUGUCAUATT against Ppp3r2 | inactive: -0.269
59 | GGAAACUUUAGCAUGAAUGTT against Hmgxb4 | inactive: -0.335
60 | CCCUGACGAAGCCAUACAUTT against Bcor | inactive: 1.47
61 | GAACUCCAGGGUAUAGUCUTT against Prss3 | inactive: 1.79
62 | GGAAAGGUUUAAUCAUGAATT against Spred1 | inactive: 0.602
63 | CCAUAAGCUACCAUUUCGATT against Smcp | inactive: -0.677
64 | CGUGUUUUAUGUCCGUCAUTT against 9330154K18Rik | inactive: -1.04
65 | GGAAUGCACAAAUUGAAAATT against Edn1 | inactive: 0.12
66 | CCAUGAAAGUCACUUGUAUTT against Map2k6 | inactive: -0.506
67 | GGUCAACCUAAACCAGCAGTT against Csn1s2a | inactive: -0.182
68 | CGGCCUACAACUACCCAACTT against Tekt3 | inactive: 1.02

Some of the entries so far, comma-delimited.
Row,Sequence,z-score
47,GGAUAGCAACAGAAAACGUTT against Lgi3,inactive: 1.04
51,GGGUUCUCAAGAAUUAAAGTT against Fbn1,inactive: -0.217
61,GAACUCCAGGGUAUAGUCUTT against Prss3,inactive: 1.79
